Values of other authors as cited in paper PMC6034060, “Enantioselective pharmacokinetics of tramadol and its three main metabolites; impact of CYP2D6, CYP2B6, and CYP3A4 genotype” (Pharmacology Research & Perspectives, 2018).

Tested on: noradrenaline reuptake
Conditions: comparison of the tramadol enantiomers; cited from earlier work

Structure (SMILES): COc1cccc(C2(O)CCCCC2CN(C)C)c1 (stereo not drawn) [(−)‐tramadol, reference compound]
- Inhibition of noradrenaline reuptake: preferentially inhibits noradrenaline reuptake
